Laboratory results reported in patent US10329299B2, “Heterocyclic compounds and uses thereof” (Infinity Pharmaceuticals, Inc., priority 2013, dated 2019).
pIC50: −log10 of the molar value. The match of structure and compound is tentative.

Amino acid sequences for entries named in this document (tags omitted). A change or cut given only in a name is not applied to a line headed by its entry.
UniProt P42336, whole entry: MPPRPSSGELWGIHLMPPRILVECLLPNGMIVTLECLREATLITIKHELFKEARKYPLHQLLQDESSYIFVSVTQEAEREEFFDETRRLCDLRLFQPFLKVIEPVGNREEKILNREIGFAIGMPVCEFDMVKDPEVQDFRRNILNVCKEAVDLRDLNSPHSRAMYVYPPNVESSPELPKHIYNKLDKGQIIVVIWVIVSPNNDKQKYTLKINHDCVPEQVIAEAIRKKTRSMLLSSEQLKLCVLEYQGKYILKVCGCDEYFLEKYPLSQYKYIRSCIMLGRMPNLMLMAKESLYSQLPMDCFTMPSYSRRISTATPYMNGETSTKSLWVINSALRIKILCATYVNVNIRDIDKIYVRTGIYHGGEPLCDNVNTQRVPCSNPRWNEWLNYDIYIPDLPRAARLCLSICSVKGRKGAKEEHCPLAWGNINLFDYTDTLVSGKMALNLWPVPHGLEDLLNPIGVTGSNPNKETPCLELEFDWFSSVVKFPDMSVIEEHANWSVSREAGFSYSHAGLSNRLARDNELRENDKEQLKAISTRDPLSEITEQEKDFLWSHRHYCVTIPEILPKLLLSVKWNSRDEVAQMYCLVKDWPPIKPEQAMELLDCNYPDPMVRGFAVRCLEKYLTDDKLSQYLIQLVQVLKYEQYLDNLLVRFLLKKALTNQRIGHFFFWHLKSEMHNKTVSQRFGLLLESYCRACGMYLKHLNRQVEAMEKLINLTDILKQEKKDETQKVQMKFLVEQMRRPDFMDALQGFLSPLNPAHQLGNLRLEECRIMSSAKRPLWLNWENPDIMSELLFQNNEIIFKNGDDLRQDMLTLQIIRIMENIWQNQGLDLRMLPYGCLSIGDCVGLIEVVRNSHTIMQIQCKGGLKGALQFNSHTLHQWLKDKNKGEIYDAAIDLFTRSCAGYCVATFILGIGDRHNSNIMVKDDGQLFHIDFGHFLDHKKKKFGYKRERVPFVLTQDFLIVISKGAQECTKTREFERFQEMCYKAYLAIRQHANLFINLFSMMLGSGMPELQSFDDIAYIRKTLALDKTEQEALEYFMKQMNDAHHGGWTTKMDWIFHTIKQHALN
UniProt P42338, whole entry: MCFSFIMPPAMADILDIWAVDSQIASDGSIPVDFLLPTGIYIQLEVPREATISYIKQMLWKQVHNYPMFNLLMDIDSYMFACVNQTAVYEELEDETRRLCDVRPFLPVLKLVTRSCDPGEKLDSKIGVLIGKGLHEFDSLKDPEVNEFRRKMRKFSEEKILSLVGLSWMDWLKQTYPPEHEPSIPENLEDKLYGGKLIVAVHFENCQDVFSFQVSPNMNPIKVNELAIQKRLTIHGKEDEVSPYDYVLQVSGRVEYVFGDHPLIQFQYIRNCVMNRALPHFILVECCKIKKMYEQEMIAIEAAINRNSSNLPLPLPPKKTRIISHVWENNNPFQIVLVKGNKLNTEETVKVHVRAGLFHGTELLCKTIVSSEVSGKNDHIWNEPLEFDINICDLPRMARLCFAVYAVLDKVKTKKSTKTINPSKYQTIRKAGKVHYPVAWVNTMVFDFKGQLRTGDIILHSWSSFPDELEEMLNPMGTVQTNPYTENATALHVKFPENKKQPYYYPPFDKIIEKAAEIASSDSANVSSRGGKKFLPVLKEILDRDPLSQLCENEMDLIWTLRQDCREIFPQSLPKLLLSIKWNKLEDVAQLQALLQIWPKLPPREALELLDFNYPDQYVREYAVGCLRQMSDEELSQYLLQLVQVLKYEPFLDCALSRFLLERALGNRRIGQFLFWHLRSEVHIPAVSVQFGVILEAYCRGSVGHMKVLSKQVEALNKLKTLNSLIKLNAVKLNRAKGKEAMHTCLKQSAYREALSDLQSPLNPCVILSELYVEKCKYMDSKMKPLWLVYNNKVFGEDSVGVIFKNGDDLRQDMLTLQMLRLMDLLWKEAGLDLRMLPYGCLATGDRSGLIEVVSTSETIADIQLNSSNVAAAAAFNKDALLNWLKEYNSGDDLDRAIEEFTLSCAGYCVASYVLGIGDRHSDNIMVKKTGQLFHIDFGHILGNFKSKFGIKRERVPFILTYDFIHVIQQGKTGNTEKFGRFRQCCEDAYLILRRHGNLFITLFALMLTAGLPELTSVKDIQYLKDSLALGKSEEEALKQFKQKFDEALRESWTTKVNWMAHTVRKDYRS
UniProt O00329, whole entry: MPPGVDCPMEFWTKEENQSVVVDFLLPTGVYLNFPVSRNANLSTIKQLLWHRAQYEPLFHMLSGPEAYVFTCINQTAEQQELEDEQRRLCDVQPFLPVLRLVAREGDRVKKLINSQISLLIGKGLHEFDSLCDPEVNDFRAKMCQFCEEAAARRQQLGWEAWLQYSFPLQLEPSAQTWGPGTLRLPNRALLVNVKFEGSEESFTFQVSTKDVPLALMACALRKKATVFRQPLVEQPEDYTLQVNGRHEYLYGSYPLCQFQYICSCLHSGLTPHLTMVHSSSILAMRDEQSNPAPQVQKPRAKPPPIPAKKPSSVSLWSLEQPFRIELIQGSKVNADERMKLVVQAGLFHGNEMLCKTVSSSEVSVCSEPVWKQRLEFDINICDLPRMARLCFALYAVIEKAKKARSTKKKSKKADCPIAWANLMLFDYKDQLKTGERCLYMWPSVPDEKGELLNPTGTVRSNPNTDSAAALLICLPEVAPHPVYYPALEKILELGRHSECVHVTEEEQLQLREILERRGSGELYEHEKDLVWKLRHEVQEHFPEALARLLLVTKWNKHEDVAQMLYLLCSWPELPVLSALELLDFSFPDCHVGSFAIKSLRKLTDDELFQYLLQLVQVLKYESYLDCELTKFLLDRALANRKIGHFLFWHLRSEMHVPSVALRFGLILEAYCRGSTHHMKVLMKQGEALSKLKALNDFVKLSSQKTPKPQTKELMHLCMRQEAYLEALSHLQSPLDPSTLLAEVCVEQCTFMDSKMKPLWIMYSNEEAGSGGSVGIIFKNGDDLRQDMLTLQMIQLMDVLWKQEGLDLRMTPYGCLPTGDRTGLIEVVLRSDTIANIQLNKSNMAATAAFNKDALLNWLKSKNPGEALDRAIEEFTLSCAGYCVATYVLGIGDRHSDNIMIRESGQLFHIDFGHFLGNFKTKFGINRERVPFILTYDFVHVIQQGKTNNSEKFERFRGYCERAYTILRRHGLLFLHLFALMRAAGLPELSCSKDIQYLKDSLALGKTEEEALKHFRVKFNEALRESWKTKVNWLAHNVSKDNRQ
UniProt P48736, whole entry: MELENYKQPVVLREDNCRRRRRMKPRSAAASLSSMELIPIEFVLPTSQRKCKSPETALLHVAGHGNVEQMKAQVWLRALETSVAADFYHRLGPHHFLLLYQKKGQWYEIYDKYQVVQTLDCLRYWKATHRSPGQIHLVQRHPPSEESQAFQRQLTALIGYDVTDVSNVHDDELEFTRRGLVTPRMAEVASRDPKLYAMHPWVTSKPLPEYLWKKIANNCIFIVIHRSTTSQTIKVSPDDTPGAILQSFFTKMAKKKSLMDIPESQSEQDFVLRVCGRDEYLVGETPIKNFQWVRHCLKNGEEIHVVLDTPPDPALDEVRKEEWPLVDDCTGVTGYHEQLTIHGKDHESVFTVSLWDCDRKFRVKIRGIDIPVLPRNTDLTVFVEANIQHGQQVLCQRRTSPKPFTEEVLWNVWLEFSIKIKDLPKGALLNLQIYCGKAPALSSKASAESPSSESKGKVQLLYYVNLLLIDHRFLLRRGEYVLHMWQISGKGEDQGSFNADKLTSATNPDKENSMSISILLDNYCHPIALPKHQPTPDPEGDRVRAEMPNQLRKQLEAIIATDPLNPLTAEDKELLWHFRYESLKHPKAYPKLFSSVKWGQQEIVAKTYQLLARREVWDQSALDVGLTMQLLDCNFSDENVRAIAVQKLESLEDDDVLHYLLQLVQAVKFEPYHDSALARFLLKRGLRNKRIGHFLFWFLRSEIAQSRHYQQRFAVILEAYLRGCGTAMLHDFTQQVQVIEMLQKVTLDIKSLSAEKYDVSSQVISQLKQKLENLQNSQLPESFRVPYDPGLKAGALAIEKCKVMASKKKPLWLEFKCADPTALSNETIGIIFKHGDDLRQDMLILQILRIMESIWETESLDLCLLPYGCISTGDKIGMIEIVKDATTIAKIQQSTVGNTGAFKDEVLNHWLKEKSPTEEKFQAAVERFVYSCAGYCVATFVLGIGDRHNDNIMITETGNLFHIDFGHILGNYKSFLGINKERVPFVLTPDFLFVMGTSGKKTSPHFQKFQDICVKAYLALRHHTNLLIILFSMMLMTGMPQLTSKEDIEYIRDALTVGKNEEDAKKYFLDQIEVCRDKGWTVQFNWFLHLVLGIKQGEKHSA
UniProt Q9JHG7, whole entry: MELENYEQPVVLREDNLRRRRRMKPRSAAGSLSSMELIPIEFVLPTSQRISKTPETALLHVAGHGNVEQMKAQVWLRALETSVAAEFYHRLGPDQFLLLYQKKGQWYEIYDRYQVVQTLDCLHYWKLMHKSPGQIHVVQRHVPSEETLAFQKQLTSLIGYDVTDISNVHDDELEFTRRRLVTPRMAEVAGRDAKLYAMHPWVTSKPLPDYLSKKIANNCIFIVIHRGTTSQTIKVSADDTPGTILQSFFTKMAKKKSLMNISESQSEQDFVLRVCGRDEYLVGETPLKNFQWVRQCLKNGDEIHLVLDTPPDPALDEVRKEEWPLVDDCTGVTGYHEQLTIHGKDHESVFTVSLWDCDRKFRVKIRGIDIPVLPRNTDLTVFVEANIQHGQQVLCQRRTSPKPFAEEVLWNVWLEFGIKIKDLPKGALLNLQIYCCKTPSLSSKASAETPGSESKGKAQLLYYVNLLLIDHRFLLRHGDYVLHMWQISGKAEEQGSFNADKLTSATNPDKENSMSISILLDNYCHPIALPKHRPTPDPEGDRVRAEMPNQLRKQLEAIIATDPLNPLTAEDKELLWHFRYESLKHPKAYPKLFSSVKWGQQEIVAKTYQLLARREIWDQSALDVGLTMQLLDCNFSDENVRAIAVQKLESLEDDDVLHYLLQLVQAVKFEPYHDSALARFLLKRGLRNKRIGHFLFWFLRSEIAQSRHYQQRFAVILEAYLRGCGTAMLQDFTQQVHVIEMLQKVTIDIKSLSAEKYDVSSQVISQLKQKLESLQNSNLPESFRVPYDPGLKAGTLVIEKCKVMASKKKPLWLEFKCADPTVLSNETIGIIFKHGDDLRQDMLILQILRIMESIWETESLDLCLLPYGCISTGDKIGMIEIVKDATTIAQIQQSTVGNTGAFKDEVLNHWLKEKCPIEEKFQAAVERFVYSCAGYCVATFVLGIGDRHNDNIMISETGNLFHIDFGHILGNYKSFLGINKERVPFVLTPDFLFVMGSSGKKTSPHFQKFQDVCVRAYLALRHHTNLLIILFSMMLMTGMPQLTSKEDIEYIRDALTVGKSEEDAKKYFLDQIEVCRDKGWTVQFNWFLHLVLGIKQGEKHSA
UniProt P27986, whole entry partner: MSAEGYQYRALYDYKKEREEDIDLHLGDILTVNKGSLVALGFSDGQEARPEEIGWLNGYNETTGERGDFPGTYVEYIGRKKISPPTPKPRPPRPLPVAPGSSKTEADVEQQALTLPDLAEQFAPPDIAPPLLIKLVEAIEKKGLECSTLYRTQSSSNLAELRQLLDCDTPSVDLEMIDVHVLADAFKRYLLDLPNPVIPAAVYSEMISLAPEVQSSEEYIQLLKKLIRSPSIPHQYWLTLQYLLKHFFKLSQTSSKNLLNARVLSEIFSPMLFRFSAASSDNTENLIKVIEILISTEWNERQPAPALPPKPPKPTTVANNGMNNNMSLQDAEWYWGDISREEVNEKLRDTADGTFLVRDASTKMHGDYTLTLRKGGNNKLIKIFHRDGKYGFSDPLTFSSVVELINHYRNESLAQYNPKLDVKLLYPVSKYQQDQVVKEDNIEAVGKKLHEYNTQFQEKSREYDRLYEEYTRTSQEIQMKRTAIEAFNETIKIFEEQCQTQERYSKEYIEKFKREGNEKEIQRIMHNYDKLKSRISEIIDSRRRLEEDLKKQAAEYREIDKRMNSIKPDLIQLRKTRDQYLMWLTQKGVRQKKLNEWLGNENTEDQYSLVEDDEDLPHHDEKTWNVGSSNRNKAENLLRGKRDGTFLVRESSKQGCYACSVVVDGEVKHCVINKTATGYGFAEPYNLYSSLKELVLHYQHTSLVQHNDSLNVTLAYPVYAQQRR

Assays:
[1] = biological target: α isoform of human Class I PI3 kinases (Homo sapiens (Human), UniProt P42336); assay: PI3-Kinase Promega ADP-Glo Max assay, α isoform; assay type: biochemical; conditions: read-out: PI3K α IC50
[2] = biological target: β isoform of human Class I PI3 kinases (Homo sapiens (Human), UniProt P42338); assay: PI3-Kinase Promega ADP-Glo Max assay, β isoform; assay type: biochemical; conditions: read-out: PI3K β IC50
[3] = biological target: δ isoform of human Class I PI3 kinases (Homo sapiens (Human), UniProt O00329); assay: PI3-Kinase Promega ADP-Glo Max assay, δ isoform; assay type: biochemical; conditions: read-out: PI3K δ IC50
[4] = biological target: γ isoform of human Class I PI3 kinases (Homo sapiens (Human), UniProt P48736); assay: PI3-Kinase Promega ADP-Glo Max assay, γ isoform; assay type: biochemical
[5] = biological target: PI3K-δ (Homo sapiens (Human), UniProt O00329); assay: PI3K-δ selective cellular assay: phospho-AKT in anti-human IgM stimulated RAJI cells; conditions: read-out: RAJI p110 δ assay IC50
[6] = biological target: PI3K-γ (Mus musculus (Mouse), UniProt Q9JHG7); assay: PI3K-γ selective cellular assay: phospho-AKT in C5a stimulated RAW264.7 macrophages; assay type: cell-based

Cc1nc(C#Cc2cccc3nc([C@H](C)NC(=O)c4c(N)nn5cccnc45)n(-c4ccccc4)c(=O)c23)cs1
pIC50 [1]: 5.00 to 5.30
pIC50 [2]: 5.00 to 5.30
pIC50 [3]: 5.00 to 5.30
PI3K δ/PI3K γ IC50 (selectivity) ([4]; ratio of PI3K δ IC50 to PI3K γ IC50): Y (Y = 50 to <850)
pIC50 ([4]; read-out: PI3K γ IC50): 7.00 to 9.00
pIC50 [5]: 6.00 to 6.30
RAJI δ/Raw264.7 γ IC50 (selectivity) ([6]; ratio of RAJI p110 δ assay IC50 to Raw264.7 p110 γ assay IC50): Y (Y = 50 to <850)
pIC50 ([6]; read-out: Raw264.7 p110 γ assay IC50, phospho-AKT, Raw264.7 cells): 7.30 to 9.00
